# Source: PubChem BioAssay AID256 (DTP/NCI, 2004)
# The list is a part of this screen's results and no random one: it is rich in T/C values a quarter to a half above the control, in often repeated tests (any T/C) and in doses without a T/C. Further doses and runs are listed elsewhere. T/C: endpoint of the treated group in % of that of the vehicle group. Some entries give survivors of the animals treated and no T/C: the source holds a T/C of zero for them, seemingly a mark for toxic or unscored doses. Some survivor counts are full or nearly so, which does not show that the dose was tolerated: the source hardly ever lists a survival T/C far under the control, and the zero likely stands for such cases as well. Counts of survivors are from the toxicity check (mostly the fifth day) where no day follows; animals may have died later. Schedules are NCI's codes, taken here to give the interval after Q, in days (D) or hours (H), and the number of doses after X. For survival time, this PubChem deposit counts one and a half times the control or more as active, and values a quarter to a half above the control carry no call in these data; other NCI protocols may use other cut-offs. Some T/C values carry the count of animals alive at the toxicity check (mostly the fifth day); without a count, all were alive then. Some entries hold several experiments; the values are given in rising order.
# Test system: CD2F1 mice, L1210 leukemia ip, survival T/C
# Assay: NCI In Vivo Anticancer Drug Screen. Data for tumor model L1210 Leukemia (intraperitoneal) in CD2F1 (CDF1) mice
# Details: higher T/C = longer survival
# In short: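 Vehicle-treated tumor-bearing mice served as controls (C) for compound-treated mice (T). Reported figure is T divided by C.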
# [1] = T/C endpoint: mean survival time, dose: 400.0 mg/kg/injection, schedule: Q01DX001 (ip), vehicle: saline
# [2] = T/C endpoint: mean survival time, dose: 200.0 mg/kg/injection, schedule: Q04DX003 (ip), vehicle: saline with Tween-80
# [3] = T/C endpoint: mean survival time, dose: 400.0 mg/kg/injection, schedule: Q04DX003 (ip), vehicle: saline with Tween-80
# [4] = T/C endpoint: mean survival time, dose: 40.0 mg/kg/injection, schedule: Q01DX009 (ip), vehicle: saline
# [5] = T/C endpoint: mean survival time, dose: 60.0 mg/kg/injection, schedule: Q01DX009 (ip), vehicle: saline
smiles,measurement,setting,value
CCCCCCCCCCCC[n+]1c(C)cc(N)c2ccccc21,survivor count,"T/C endpoint: mean survival time, dose: 2.5 mg/kg/injection, schedule: Q01DX001 (ip), vehicle: other",2 of 6
same,survivor count,"T/C endpoint: mean survival time, dose: 75.0 mg/kg/injection, schedule: Q01DX001 (ip), vehicle: other",0 of 6
same,survivor count,"T/C endpoint: mean survival time, dose: 150.0 mg/kg/injection, schedule: Q01DX001 (ip), vehicle: other",0 of 6
same,survivor count,"T/C endpoint: mean survival time, dose: 300.0 mg/kg/injection, schedule: Q01DX001 (ip), vehicle: other",0 of 6
Cc1cc(I)cs1,survivor count,[1],1 of 6
Cc1c(O)c(Br)c(C)c(O)c1Br (tested in a mixture with another compound),survivor count,[1],0 of 6
NC(=O)c1ccc[n+](CCc2c[nH]c3ccccc23)c1,survivor count,"T/C endpoint: mean survival time, dose: 150.0 mg/kg/injection, schedule: Q04DX003 (ip), vehicle: saline with Tween-80",5 of 6
same,survivor count,"T/C endpoint: mean survival time, dose: 300.0 mg/kg/injection, schedule: Q04DX003 (ip), vehicle: saline with Tween-80",1 of 6
CN(C)C1C(=O)C(C(=O)NP(=O)(NCCCO)N(CCCl)CCCl)=C(O)C2(O)C(=O)C3=C(O)c4c(O)cccc4C(C)(O)C3CC12 (stereo not drawn),T/C,"T/C endpoint: mean survival time, dose: 500.0 mg/kg/injection, schedule: Q01DX001 (ip), vehicle: saline with Tween-80",148 % of control [4 of 6 alive]
same,T/C,"T/C endpoint: median survival time, dose: 25.0 mg/kg/injection, schedule: Q01DX009 (ip), vehicle: saline with Tween-80",127 % of control
same,T/C,"T/C endpoint: median survival time, dose: 50.0 mg/kg/injection, schedule: Q01DX009 (ip), vehicle: saline with Tween-80",127 % of control
same,T/C,"T/C endpoint: median survival time, dose: 100.0 mg/kg/injection, schedule: Q01DX009 (ip), vehicle: saline with Tween-80",139 % of control
same,survivor count,"T/C endpoint: median survival time, dose: 400.0 mg/kg/injection, schedule: Q01DX009 (ip), vehicle: saline with Tween-80",2 of 6
Cc1cc[n+](CCc2ccccc2)cc1,survivor count,"T/C endpoint: mean survival time, dose: 100.0 mg/kg/injection, schedule: Q01DX009 (ip), vehicle: saline with Tween-80",1 of 6
CCc1nc(N)nc(N)c1-c1ccc(Cl)cc1,survivor count,"T/C endpoint: mean survival time, dose: 32.0 mg/kg/injection, schedule: Q03HX008 (ip), vehicle: saline",1 of 10
same,survivor count,"T/C endpoint: mean survival time, dose: 32.0 mg/kg/injection, schedule: Q03HX016 (ip), vehicle: saline",2 of 10
same,survivor count,"T/C endpoint: mean survival time, dose: 32.0 mg/kg/injection, schedule: Q03HX024 (ip), vehicle: saline",1 of 10
same,survivor count,"T/C endpoint: mean survival time, dose: 64.0 mg/kg/injection, schedule: Q03HX008 (ip), vehicle: saline",0 of 10
same,survivor count,"T/C endpoint: mean survival time, dose: 64.0 mg/kg/injection, schedule: Q03HX016 (ip), vehicle: saline",0 of 10
same,survivor count,"T/C endpoint: mean survival time, dose: 64.0 mg/kg/injection, schedule: Q03HX024 (ip), vehicle: saline",0 of 10
same,survivor count,"T/C endpoint: mean survival time, dose: 128.0 mg/kg/injection, schedule: Q01DX001 (ip), vehicle: saline",5 of 10
same,survivor count,"T/C endpoint: mean survival time, dose: 128.0 mg/kg/injection, schedule: Q01DX001 (oral), vehicle: saline",1 of 10
same,survivor count,"T/C endpoint: mean survival time, dose: 128.0 mg/kg/injection, schedule: Q01DX009 (ip), vehicle: saline",7 of 10
same,survivor count,"T/C endpoint: mean survival time, dose: 128.0 mg/kg/injection, schedule: Q01DX009 (oral), vehicle: saline",5 of 10
same,survivor count,"T/C endpoint: mean survival time, dose: 128.0 mg/kg/injection, schedule: Q03HX008 (ip), vehicle: saline",0 of 10
same,survivor count,"T/C endpoint: mean survival time, dose: 128.0 mg/kg/injection, schedule: Q03HX016 (ip), vehicle: saline",0 of 10
same,survivor count,"T/C endpoint: mean survival time, dose: 128.0 mg/kg/injection, schedule: Q04DX003 (ip), vehicle: saline",8 of 10
same,survivor count,"T/C endpoint: mean survival time, dose: 256.0 mg/kg/injection, schedule: Q01DX001 (ip), vehicle: saline",0 of 10
same,survivor count,"T/C endpoint: mean survival time, dose: 256.0 mg/kg/injection, schedule: Q01DX001 (oral), vehicle: saline",0 of 10
same,survivor count,"T/C endpoint: mean survival time, dose: 256.0 mg/kg/injection, schedule: Q01DX009 (oral), vehicle: saline",0 of 10
same,survivor count,"T/C endpoint: mean survival time, dose: 256.0 mg/kg/injection, schedule: Q04DX003 (ip), vehicle: saline",4 of 10
same,survivor count,"T/C endpoint: mean survival time, dose: 256.0 mg/kg/injection, schedule: Q08DX002 (ip), vehicle: saline",3 of 10
same,survivor count,"T/C endpoint: mean survival time, dose: 512.0 mg/kg/injection, schedule: Q01DX001 (ip), vehicle: saline",2 of 10
same,survivor count,"T/C endpoint: mean survival time, dose: 512.0 mg/kg/injection, schedule: Q01DX001 (oral), vehicle: saline",0 of 10
same,survivor count,"T/C endpoint: mean survival time, dose: 512.0 mg/kg/injection, schedule: Q01DX009 (oral), vehicle: saline",0 of 10
same,survivor count,"T/C endpoint: mean survival time, dose: 512.0 mg/kg/injection, schedule: Q04DX003 (ip), vehicle: saline",0 of 10
same,survivor count,"T/C endpoint: mean survival time, dose: 512.0 mg/kg/injection, schedule: Q08DX002 (ip), vehicle: saline",0 of 10
same,survivor count,"T/C endpoint: mean survival time, dose: 1024.0 mg/kg/injection, schedule: Q01DX001 (ip), vehicle: saline",0 of 10
same,survivor count,"T/C endpoint: mean survival time, dose: 1024.0 mg/kg/injection, schedule: Q01DX001 (oral), vehicle: saline",0 of 10
same,survivor count,"T/C endpoint: mean survival time, dose: 1024.0 mg/kg/injection, schedule: Q08DX002 (ip), vehicle: saline",0 of 10
CN(C)C=NC1(c2ccccc2)CCCCC1,survivor count,[2],2 of 6
same,survivor count,[3],0 of 6
CC(CCC/C=C/CCCN(C)C(=N)N)CC(C)C1OC(=O)C(C)C(O)/C=C/C(C)C(O)C(C)C(O)C(C)C(O)CCCC(O)CC2(O)OC(CC(OC(=O)CC(=O)O)CC(O)CC(O)C(C)C(O)/C=C/C=C/C1C)CC(O)C2O (stereo not drawn),survivor count,"T/C endpoint: mean survival time, dose: 8.4 mg/kg/injection, schedule: Q01DX009 (ip), vehicle: saline",1 of 6
same,survivor count,"T/C endpoint: mean survival time, dose: 12.6 mg/kg/injection, schedule: Q01DX009 (ip), vehicle: saline",0 of 6
O=c1c(O)c(-c2ccc(O)c(O)c2)oc2cc(O)cc(O)c12,survivor count,"T/C endpoint: mean survival time, dose: 1600.0 mg/kg/injection, schedule: Q01DX009 (ip), vehicle: saline with Tween-80",6 of 10
S=C(NNC(=S)Nc1ccc(Cl)cc1)NNc1ccccc1,survivor count,"T/C endpoint: mean survival time, dose: 200.0 mg/kg/injection, schedule: Q01DX009 (ip), vehicle: acetone",2 of 6
COC(=O)C#CC(N)=O,survivor count,"T/C endpoint: mean survival time, dose: 10.0 mg/kg/injection, schedule: Q04DX003 (ip), vehicle: saline sonified",0 of 6
same,survivor count,"T/C endpoint: mean survival time, dose: 20.0 mg/kg/injection, schedule: Q04DX003 (ip), vehicle: saline sonified",0 of 6
same,survivor count,"T/C endpoint: mean survival time, dose: 100.0 mg/kg/injection, schedule: Q04DX003 (ip), vehicle: saline with Tween-80",0 of 6
same,survivor count,[2],0 of 6
same,survivor count,[3],0 of 6
COc1cc2cc[n+]3c(C)c4ccc(OC)c(OC)c4cc3c2cc1OC (tested in a mixture with another compound),T/C,"T/C endpoint: mean survival time, dose: 10.0 mg/kg/injection, schedule: Q01DX009 (ip), vehicle: saline","106, 111 [5 of 6 alive], 119, 128 % of control"
same,T/C,"T/C endpoint: mean survival time, dose: 20.0 mg/kg/injection, schedule: Q01DX009 (ip), vehicle: saline","101, 115 [5 of 6 alive], 126 [5 of 6 alive], 136 % of control"
same,T/C,[4],"107, 125 [5 of 6 alive], 142 % of control"
same,survivor count,[4],5 of 6
same,T/C,[5],148 % of control [5 of 6 alive]
same,survivor count,[5],2 of 6
Nc1nc(N)c(-c2ccc(Cl)c(Cl)c2)c(CBr)n1,survivor count,"T/C endpoint: mean survival time, dose: 50.0 mg/kg/injection, schedule: Q01DX009 (ip), vehicle: saline with Tween-80",2 of 3
CC(CCOP(N)(=O)N(CCCl)CCCl)OCc1ccccc1 (stereo not drawn),T/C,"T/C endpoint: mean survival time, dose: 200.0 mg/kg/injection, schedule: Q01DX001 (ip), vehicle: other",133 % of control
same,T/C,"T/C endpoint: mean survival time, dose: 400.0 mg/kg/injection, schedule: Q01DX001 (ip), vehicle: other, evaluated on day 30",132 % of control [5 of 6 alive]
same,T/C,"T/C endpoint: mean survival time, dose: 400.0 mg/kg/injection, schedule: Q01DX001 (ip), vehicle: other, evaluated on day 50",137 % of control
CN(C)c1ncnc(-c2ccncc2)n1,survivor count,"T/C endpoint: mean survival time, dose: 400.0 mg/kg/injection, schedule: Q04DX002 (ip), vehicle: saline with Tween-80",0 of 3
NC(CCC(=O)OCc1ccccc1)C(=O)OCc1ccccc1 (stereo not drawn),survivor count,"T/C endpoint: mean survival time, dose: 400.0 mg/kg/injection, schedule: Q04DX003 (ip), vehicle: saline",2 of 6
